PubChem BioAssay AID686943 | Drosophila RNAi Screening Center, 2013
Test: 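Knockdowns that increase or decrease active ERK after insulin receptor stimulation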 (primary screen). System: Drosophila S2R+ haemocyte-like cells expressing YFP-tagged ERK (Rolled). Reagent: long dsRNA against Drosophila genes. Conditions: insulin stimulation versus unstimulated cells; dose and duration not given. Measurement: 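Per-plate z-scores of phospho-ERK immunostaining normalised to YFP-tagged ERK, measured with and without insulin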. Reading the numbers: replicate 1, z-score of dpERK with insulin and replicate 2, z-score of dpERK with insulin: higher = more active ERK per ERK-YFP after insulin; replicate 1, z-score of dpERK under basal conditions: higher = more basal active ERK per ERK-YFP; replicate 1, z-score of ERK-YFP with insulin: higher = more YFP-tagged ERK signal.
The screen tested about 23,000 reagents; below is a random part of those with a known target gene and a result. 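Extra replicates exist only for a retested subset of genes; insulin dose and duration not given; both raised and lowered dpERK matter.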 A plus sign joins genes that one reagent is predicted to hit. The record does not give: the amount of reagent, the time to read-out.

target	amplicon	replicate 1, z-score of dpERK with insulin	replicate 2, z-score of dpERK with insulin	replicate 1, z-score of dpERK under basal conditions	replicate 1, z-score of ERK-YFP with insulin
qjt (quijote)	DRSC10060	-0.15	0.43	-1.11	0.59
Ip259 (Intronic Protein 259)	DRSC03352	-1.12	-0.51	-1.81	-3.49
PPYR1 (Protein phosphatase Y regulator 1)	DRSC19612	-0.82	-0.58	0.35	0.65
CG10859	DRSC02110	0.15	0.21	-0.47	-0.74
CG1172	DRSC12182	0.16	0.37	-0.44	0.83
CG1172	DRSC21954	-0.62	-0.08	0	-1.13
HtrA2 (HTRA2-related serine protease)	DRSC16425	0.16	0.59	0.39	-0.31
nord	DRSC04210	0.37	0.45	-2.85	-0.03
nord	DRSC04361	-0.63	-0.58	-0.39	-0.04
CREG (Cellular Repressor of E1A-stimulated Genes)	DRSC16595	0.05	0.51	0.81	0.05
BomS4 (Bomanin Short 4)	DRSC22509	0.13	0.36	2.03	0.64
CG9747	DRSC16554	-0.82	-0.93	1.27	-0.26
CG14273	DRSC02377	1.98	0.89	0.19	-1.42
CG2574	DRSC19862	0.73	0.4	3.17	-0.17
Liprin-alpha	DRSC02132	-0.21	0.33	-0.27	-0.49
BTBD9 (BTB (POZ) domain containing 9)	DRSC18148	-0.03	0.51	-0.12	0.07
BTBD9 (BTB (POZ) domain containing 9)	DRSC22371	1.16	-0.92	-0.39	0.85
GILT2 (Gamma-interferon-inducible lysosomal thiol reductase 2)	DRSC14196	0.06	0.29	-0.01	-0.48
fdl (fused lobes)	DRSC07279	0.29	-0.03	0.14	0.09
CG1246	DRSC08275	-0.03	-0.17	1.71	0.61
CG4610	DRSC04477	0.33	-0.05	-0.3	-0.06
CG4610	DRSC22397	0.19	0.17	-1.1	0.71
CG46491	DRSC06565	0.84	-0.46	1.01	0.32
CG46491	DRSC06566	0.5	0.09	-0.35	-0.14

5 of these entries in another layout.
CG1246 [DRSC08275] — replicate 1, z-score of dpERK with insulin = -0.03; replicate 2, z-score of dpERK with insulin = -0.17; replicate 1, z-score of dpERK under basal conditions = 1.71; replicate 1, z-score of ERK-YFP with insulin = 0.61
CG4610 [DRSC04477] — replicate 1, z-score of dpERK with insulin = 0.33; replicate 2, z-score of dpERK with insulin = -0.05; replicate 1, z-score of dpERK under basal conditions = -0.3; replicate 1, z-score of ERK-YFP with insulin = -0.06
CG4610 [DRSC22397] — replicate 1, z-score of dpERK with insulin = 0.19; replicate 2, z-score of dpERK with insulin = 0.17; replicate 1, z-score of dpERK under basal conditions = -1.1; replicate 1, z-score of ERK-YFP with insulin = 0.71
CG46491 [DRSC06565] — replicate 1, z-score of dpERK with insulin = 0.84; replicate 2, z-score of dpERK with insulin = -0.46; replicate 1, z-score of dpERK under basal conditions = 1.01; replicate 1, z-score of ERK-YFP with insulin = 0.32
CG46491 [DRSC06566] — replicate 1, z-score of dpERK with insulin = 0.5; replicate 2, z-score of dpERK with insulin = 0.09; replicate 1, z-score of dpERK under basal conditions = -0.35; replicate 1, z-score of ERK-YFP with insulin = -0.14

The listing continues:
target	amplicon	replicate 1, z-score of dpERK with insulin	replicate 2, z-score of dpERK with insulin	replicate 1, z-score of dpERK under basal conditions	replicate 1, z-score of ERK-YFP with insulin
CG5968	DRSC02916	-1.03	-0.2	1.68	0.33
dgt2 (dim gamma-tubulin 2)	DRSC02548	0.16	0.14	3.17	1.81
ppk9 (pickpocket 9)	DRSC04134	-0.16	0.35	-0.7	0.13
ppk9 (pickpocket 9)	DRSC04135	-1.85	-1.62	0.98	0.29
Fibp	DRSC11031	-1.5	-0.4	-0.82	0.82
Alms1a (Alstrom syndrome 1a)	DRSC18558	-0.52	-0.16	-0.45	0.25
Esyt2 (Extended synaptotagmin-like protein 2)	DRSC16082	-0.24	-0.39	0.02	0.41
tw (twisted)	DRSC18537	-0.27	-0.82	0.26	0.52
Prosap	DRSC06382	-0.99	0.05	0.18	0
Prosap	DRSC07081	-0.24	-0.12	0.23	0.43
CG12945	DRSC14573	0.52	0.62	-0.14	-0.29
CG44014 + CG44013	DRSC14995	-0.05	-1.49	-0.66	0.13
Mcm2 (Minichromosome maintenance 2)	DRSC16734	-1.09	0.84	0.26	0.27
CG42471	DRSC01210	0.56	0.18	0.32	-0.74
Cse1 (Chromosome segregation 1)	DRSC03287	-2.53	-2.36	-2.72	0.38
Acbp4 (Acyl-CoA binding protein 4)	DRSC11023	0.42	-0.45	-0.76	0.25
CG7910	DRSC16341	0.78	1.17	-0.15	-0.6
Septin5 (Septin 5)	DRSC06843	-0.07	0.69	0.57	0.94
CG5565	DRSC00690	-1.13	0.78	-0.16	0.25
l(3)87Df (lethal (3) 87Df)	DRSC16982	0.35	0.75	-0.69	-0.62
CG8097	DRSC20079	-0.18	-0.03	-0.38	-0.09
Gsc (Goosecoid)	DRSC00755	0	-2.1	0.14	0.59
CG13775	DRSC02279	0.71	0.07	1.38	0.03
gem (gemini)	DRSC06093	-0.36	-0.64	0.36	0.01
gem (gemini)	DRSC06847	-0.34	-0.56	-0.74	-0.08
CG12194	DRSC00345	0.81	0.05	0.66	0.15
CG4025	DRSC18523	0.57	0.52	0.1	0.25
stai (stathmin)	DRSC02920	0.67	-0.04	0.02	-0.57
stai (stathmin)	DRSC22235	-0.01	-0.34	-1.1	1.75
C3G (C3G guanyl-nucleotide exchange factor)	DRSC17745	0.91	0.54	0.16	-0.35
C3G (C3G guanyl-nucleotide exchange factor)	DRSC17929	0.64	0.64	1.86	0.24
C3G (C3G guanyl-nucleotide exchange factor)	DRSC22329	0.67	1.24	-0.8	1.4
CG6126	DRSC15971	0.29	-0.02	-0.6	0.27
